The values below come from PMC11401034.

This assay concerns the target HA::SQSTM1 (human) (UniProt Q13501). Description: co-IP; lysate of HEK-293T cells transiently expressing HA::SQSTM1 (0.1% NP-40, 1 mM EDTA, 120 mM NaCl, 50 mM Tris-HCl pH 7.5), anti-HA antibody and Dynabeads Protein G at 4C, Western blot.

Results are given in words; binding and its absence hold for the method and conditions named. In cells and extracts the contact can be indirect. Some results given as binding are weak or reduced against the parent protein; the word gives no strength.

Regarding “Argonaut 2 (AGO2) (from UniProt Q9UKV8 1-859)”, the binding entry is “binds”.
